This is an account of results in article doi:10.1101/2020.01.30.926840.

Sequences of proteins named here, by UniProt entry; tags and fusion partners are left off.
UniProt P61026: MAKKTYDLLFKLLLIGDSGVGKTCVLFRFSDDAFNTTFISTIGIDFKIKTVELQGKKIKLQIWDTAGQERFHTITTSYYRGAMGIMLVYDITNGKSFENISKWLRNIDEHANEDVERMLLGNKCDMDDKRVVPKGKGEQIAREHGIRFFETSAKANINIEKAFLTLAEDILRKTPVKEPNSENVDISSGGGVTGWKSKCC
UniProt Q99MS7: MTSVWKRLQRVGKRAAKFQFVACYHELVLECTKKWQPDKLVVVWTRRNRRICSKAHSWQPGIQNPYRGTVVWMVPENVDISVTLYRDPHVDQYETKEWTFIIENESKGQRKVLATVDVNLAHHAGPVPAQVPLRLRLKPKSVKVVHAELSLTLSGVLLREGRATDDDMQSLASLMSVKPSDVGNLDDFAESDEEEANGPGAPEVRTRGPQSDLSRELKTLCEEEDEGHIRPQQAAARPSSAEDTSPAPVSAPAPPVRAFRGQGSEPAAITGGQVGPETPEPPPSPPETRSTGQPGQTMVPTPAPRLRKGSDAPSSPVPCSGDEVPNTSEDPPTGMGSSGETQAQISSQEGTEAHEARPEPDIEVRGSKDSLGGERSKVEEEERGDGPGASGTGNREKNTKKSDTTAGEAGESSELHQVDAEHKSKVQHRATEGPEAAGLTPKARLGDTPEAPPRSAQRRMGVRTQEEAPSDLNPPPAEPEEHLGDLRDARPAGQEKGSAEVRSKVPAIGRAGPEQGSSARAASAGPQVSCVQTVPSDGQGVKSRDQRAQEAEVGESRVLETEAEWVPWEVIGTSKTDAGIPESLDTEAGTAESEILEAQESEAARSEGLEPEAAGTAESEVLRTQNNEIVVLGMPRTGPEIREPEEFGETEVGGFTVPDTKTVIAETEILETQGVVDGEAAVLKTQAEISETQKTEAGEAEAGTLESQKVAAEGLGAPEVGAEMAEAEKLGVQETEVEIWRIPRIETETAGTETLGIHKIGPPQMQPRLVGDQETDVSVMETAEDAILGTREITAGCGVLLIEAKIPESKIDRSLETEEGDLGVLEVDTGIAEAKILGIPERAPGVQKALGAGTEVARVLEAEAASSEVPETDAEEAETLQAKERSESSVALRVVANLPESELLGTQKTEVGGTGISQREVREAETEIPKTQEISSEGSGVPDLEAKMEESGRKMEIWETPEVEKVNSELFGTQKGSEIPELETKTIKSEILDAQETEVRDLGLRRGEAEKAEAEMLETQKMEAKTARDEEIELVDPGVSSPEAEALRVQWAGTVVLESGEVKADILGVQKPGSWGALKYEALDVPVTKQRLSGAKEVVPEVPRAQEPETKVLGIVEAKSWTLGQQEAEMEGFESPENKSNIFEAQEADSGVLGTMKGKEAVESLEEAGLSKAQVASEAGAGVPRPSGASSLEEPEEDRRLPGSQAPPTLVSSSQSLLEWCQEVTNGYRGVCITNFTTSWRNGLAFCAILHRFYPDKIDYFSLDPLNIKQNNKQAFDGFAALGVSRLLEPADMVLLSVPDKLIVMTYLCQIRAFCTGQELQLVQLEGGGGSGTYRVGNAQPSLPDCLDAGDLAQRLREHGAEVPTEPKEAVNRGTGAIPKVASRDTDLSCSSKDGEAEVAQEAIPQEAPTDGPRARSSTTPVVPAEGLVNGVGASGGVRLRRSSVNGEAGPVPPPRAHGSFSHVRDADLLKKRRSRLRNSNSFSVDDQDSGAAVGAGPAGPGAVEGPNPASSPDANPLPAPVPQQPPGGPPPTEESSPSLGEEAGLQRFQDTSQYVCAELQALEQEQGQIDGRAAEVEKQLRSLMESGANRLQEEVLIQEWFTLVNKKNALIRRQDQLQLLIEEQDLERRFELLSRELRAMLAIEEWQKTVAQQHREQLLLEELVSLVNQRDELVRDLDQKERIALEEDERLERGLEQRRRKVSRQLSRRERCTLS

Like-named read-outs stand apart in the source and are kept apart here. These are yes or no findings as the source states them, for the method shown. In cells and extracts the contact can be indirect. A yes stands for co-enrichment or nearness to the bait. Other partners may have been found. For some assays here: A no says only that the protein was not detected with the bait.

Experiment [1] concerns the target Flag-Rab10 (Raw264.7) (UniProt P61026). As to the kind of experiment: affinity purification with mass spectrometry.
For experiment [2] the target is unchanged. As to the kind of experiment: affinity purification with mass spectrometry. The source holds these as a separate data set.

Take “EH domain-binding protein 1-like protein 1 (from UniProt Q99MS7 1-1716)”: the binding result is reported as “binds” in experiment [1] and “no binding (only with 2 mM GDP)” in experiment [2].
